Values joined by “and” are separate entries in the source; they are usually repeats but may differ in a detail not shown here. Equal entries are not always repeated. The list shows a part of the results. Potency and affinity values are given separately.
System: Acinetobacter baumannii
Details: Concentration 32 ug.mL-1, ASSAY_TEST Inhibition of Bacterial Growth, detection method Absorption (OD600), MEDIA CAMHB, plate type 384well, NBS, CORNING #3640, time 18 hr

Structure (SMILES) | Inhibition [%] | Inhibition (32 ug/mL)
[C-]#[N+]c1ccc(C(=O)NC(Cc2ccc(F)cc2)C(=O)NCCC)cc1 (stereo not given) | -0.32 | 
CCCNC(=O)C(Cc1ccccc1)NC(=O)c1ccc(F)cc1 (stereo not given) | 1.98 | 
Cc1ccc(C(=O)NC(Cc2ccc(F)cc2)C(=O)O)cc1 (stereo not given) |  | 1.91% and -2.89%
COc1cc(C(=O)N[C@@H](CC(C)C)C(=O)O)ccc1O |  | 0.13% and -2.3%
CC(C)C[C@H](NC(=O)c1cccnc1)C(N)=O |  | 6.61% and -0.77%
CCCNC(=O)C(Cc1ccc(F)cc1)NC(=O)c1ccccc1 (stereo not given) | -1.48 | 
[C-]#[N+]c1ccc(C(=O)NC(CC#C)C(=O)NCCC)cc1 (stereo not given) | 9.9 | 
CCCNC(=O)C(Cc1ccccc1C)NC(=O)c1ccc(C(F)(F)F)cc1 (stereo not given) | -1.3 | 
NC(Cc1ccccc1F)C(=O)O.O=C(O)C(F)(F)F (stereo not given) |  | -11.5% and -13.26%
NC(=O)[C@H](Cc1ccccc1)NC(=O)c1c(F)c(F)c(F)c(F)c1F |  | 4.52% and 4%
[C-]#[N+]c1ccc(C(=O)NC(Cc2ccccc2F)C(=O)NCCC)cc1 (stereo not given) | 0.53 | 
[C-]#[N+]c1ccc(C(=O)NC(CC)C(=O)NCCC)cc1 (stereo not given) | 2.58 | 
O=C(N[C@@H](Cc1ccccc1)C(=O)O)C1CCCCC1 |  | -3.27% and -3.11%
O=C(Cc1cccc(Br)c1)N[C@@H](Cc1ccccc1)C(=O)O |  | 6.45% and 4.92%
NC(Cc1ccccc1I)C(=O)O.O=C(O)C(F)(F)F (stereo not given) |  | -9.72% and 9.62%
C[C@H](NC(=O)c1ccccc1Cl)C(=O)O |  | 5.48% and 7.71%
CCCNC(=O)C(Cc1ccccc1)NC(=O)Cc1ccccc1 (stereo not given) | 2.92 | 
[C-]#[N+]c1ccc(C(=O)NC(Cc2ccc(C(F)(F)F)cc2)C(=O)NCCC)cc1 (stereo not given) | 2.43 | 
CC(C)C[C@H](NC(=O)c1ccc(Cl)cc1Cl)C(N)=O |  | 2.3% and 0.99%
NC(Cc1ccc(F)cc1)C(=O)O.O=C(O)C(F)(F)F (stereo not given) |  | -4.86% and 3.33%
O=C(NC(CCCc1ccccc1)C(=O)O)c1cccc2ccccc12 (stereo not given) |  | 10.36% and 5.75%
NC(Cc1cccc(F)c1)C(=O)O.O=C(O)C(F)(F)F (stereo not given) |  | -11.31% and -1.48%
NC(=O)[C@H](Cc1ccccc1)NC(=O)c1cccnc1 |  | 4.48% and 5.48%
O=C(NC(Cc1ccc(Cl)nc1)C(=O)O)c1ccccc1 (stereo not given) |  | 10.2% and 15.94%
[C-]#[N+]c1ccc(C(=O)NC(CC=C)C(=O)NCCC)cc1 (stereo not given) | 5.4 | 
CC(C)[C@H](NC(=O)c1cccc(C(F)(F)F)c1)C(=O)O |  | 4.73% and -4.41%
Cc1ccc(C(=O)NC(Cc2ccccc2C#N)C(=O)O)cc1 (stereo not given) |  | 10.77% and 9.29%
Cc1ccc(C(=O)NC(Cc2cc(F)c(F)cc2F)C(=O)O)cc1 (stereo not given) |  | 2.25% and 9.27%
NC(Cc1ccc(F)c(F)c1)C(=O)O.O=C(O)C(F)(F)F (stereo not given) |  | -14.03% and 0.17%
NC(=O)[C@@H]1CCCN1C(=O)c1ccccn1 |  | 0.96% and 7.63%

Grouped by structure, the compounds so far containing nitrogen in an aromatic ring.
Structure (SMILES) | Inhibition [%] | Inhibition (32 ug/mL)
CC(C)C[C@H](NC(=O)c1cccnc1)C(N)=O |  | 6.61% and -0.77%
NC(=O)[C@H](Cc1ccccc1)NC(=O)c1cccnc1 |  | 4.48% and 5.48%
O=C(NC(Cc1ccc(Cl)nc1)C(=O)O)c1ccccc1 (stereo not given) |  | 10.2% and 15.94%
NC(=O)[C@@H]1CCCN1C(=O)c1ccccn1 |  | 0.96% and 7.63%

— ChEMBL document CHEMBL4513142, “CO-ADD screening of Indiana University - Purdue University Indianapolis (USA) compounds”
